PubChem BioAssay AID1224829 | NIAID, 2016

- Screen: 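Secondary check of hits that alter LPS-induced p65 translocation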 (follow-up of hits)
- System: mouse RAW264.7 G9 macrophage reporter cells
- Reagents: single siRNA against mouse genes, 100 nM
- Time to read-out: 2 days of siRNA knock-down, then 40 min of LPS before fixing
- Challenge: LPS (Salmonella minnesota R595) at 10 ng/ml
- Detection: 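High-content images after 40 min LPS exposure; GFP-p65 nucleus to surrounding ring signal ratio, normalised to plate median and non-targeting control wells, expressed as z-score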
- Scale: p65 translocation z-score and gene median z-score, per vendor: higher = more nuclear NF-kappaB p65 after LPS
- Rule for the call: 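Active means the replicate-mean z-score lies beyond plus or minus 2, in either direction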
- Meaning of the calls: active = changed p65 translocation (either direction); inactive = no clear change
Shown is a random part of about 3,800 reagents. 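Calls cover raised and lowered translocation; gene median uses one vendor's three siRNAs; qiagen siRNAs acted more weakly than ambion siRNAs.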 A number with no mark means an inactive call. Reagents against one gene are numbered here.

gene	siRNA no.	siRNA vendor or control pool	p65 translocation z-score, replicate mean	p65 translocation z-score, replicate 1	p65 translocation z-score, replicate 2	gene median z-score, per vendor
Or4c112	1	ambion single siRNA	-1.46	-0.877	-2.04	-2.13
Or4c112	2	ambion single siRNA	-3.81 (active)	-3.65	-3.97	-2.13
Or4c112	3	ambion single siRNA	-2.13 (active)	-2.13		-2.13
Or4c112	4	qiagen single siRNA	1.09	-0.773	2.96	-0.11
Or4c112	5	qiagen single siRNA	-1.01	-1.91	-0.11	-0.11
Or4c112	6	qiagen single siRNA	0.491	0.491		-0.11
Psors1c2	1	ambion single siRNA	0.304	0.491	0.118	-1.66
Psors1c2	2	ambion single siRNA	-2.23 (active)	-1.36	-3.1	-1.66
Psors1c2	3	ambion single siRNA	-2.45 (active)	-1.96	-2.95	-1.66
Psors1c2	4	qiagen single siRNA	1.55	0.632	2.48	-0.736
Psors1c2	5	qiagen single siRNA	-0.736	-0.596	-0.875	-0.736
Psors1c2	6	qiagen single siRNA	-3.26 (active)	-2.96	-3.56	-0.736
Numbl	1	ambion single siRNA	-0.593	0.109	-1.29	-1.29
Numbl	2	ambion single siRNA	-3.19 (active)	-3.19		-1.29
Numbl	3	ambion single siRNA	-0.683	0.285	-1.65	-1.29
Numbl	4	qiagen single siRNA	1.55	1.81	1.29	0.162
Numbl	5	qiagen single siRNA	-0.01	-0.182	0.162	0.162
Numbl	6	qiagen single siRNA	-5.76 (active)	-5.76		0.162
Ido1	1	ambion single siRNA	-5.25 (active)	-7.42	-3.08	-4.1
Ido1	2	ambion single siRNA	-1.28	1.45	-4.01	-4.1
Ido1	3	ambion single siRNA	-6.49 (active)	-8.8	-4.19	-4.1
Ido1	4	qiagen single siRNA	3.57 (active)	1.76	5.39	1.67
Ido1	5	qiagen single siRNA	1.57	1.57	1.56	1.67
Ido1	6	qiagen single siRNA	0.601	-1.18	2.38	1.67
Mpzl3	1	ambion single siRNA	0.816	2.23	-0.601	-1.31
Mpzl3	2	ambion single siRNA	-5.2 (active)	-5.81	-4.58	-1.31
Mpzl3	3	ambion single siRNA	-1.31	-1.57	-1.06	-1.31
Mpzl3	4	qiagen single siRNA	-2.2 (active)	-1.72	-2.67	-2.18
Mpzl3	5	qiagen single siRNA	5.14 (active)	5.14		-2.18
Mpzl3	6	qiagen single siRNA	-2.53 (active)	-2.89	-2.18	-2.18
Mobp	1	ambion single siRNA	2.78 (active)	4.23	1.32	-0.973
Mobp	2	ambion single siRNA	-1.7	-0.635	-2.76	-0.973
Mobp	3	ambion single siRNA	-3.28 (active)	-1.31	-5.25	-0.973

An excerpt from above, reduced to “p65 translocation z-score, replicate 1”.
Or4c112 #1, siRNA vendor or control pool ambion single siRNA = -0.877
Or4c112 #2, siRNA vendor or control pool ambion single siRNA = -3.65 (active)
Or4c112 #3, siRNA vendor or control pool ambion single siRNA = -2.13 (active)
Or4c112 #4, siRNA vendor or control pool qiagen single siRNA = -0.773
Or4c112 #5, siRNA vendor or control pool qiagen single siRNA = -1.91
Or4c112 #6, siRNA vendor or control pool qiagen single siRNA = 0.491

The results go on:
gene	siRNA no.	siRNA vendor or control pool	p65 translocation z-score, replicate mean	p65 translocation z-score, replicate 1	p65 translocation z-score, replicate 2	gene median z-score, per vendor
Poglut3	1	ambion single siRNA	-1.82	-3.4	-0.25	-0.869
Poglut3	2	ambion single siRNA	-0.299	-1.49	0.891	-0.869
Poglut3	3	ambion single siRNA				-0.869
Poglut3	4	qiagen single siRNA	1.06	-0.0231	2.14	-0.269
Poglut3	5	qiagen single siRNA	-1.46	-1.66	-1.26	-0.269
Poglut3	6	qiagen single siRNA	0.246	-0.515	1.01	-0.269
Rpl37a	1	ambion single siRNA	-0.616	0.281	-1.51	-1.51
Rpl37a	2	ambion single siRNA	-1.63	0.792	-4.05	-1.51
Rpl37a	3	ambion single siRNA	-1.65	-1.65		-1.51
Rpl37a	4	qiagen single siRNA	-1.42	1.46	-4.3	-4.12
Rpl37a	5	qiagen single siRNA	-2.71 (active)	-1.31	-4.12	-4.12
Rpl37a	6	qiagen single siRNA	-6.61 (active)	-6.61		-4.12
Hras	1	ambion single siRNA	-1.98	-2.39	-1.57	-2.39
Hras	2	ambion single siRNA	-4.34 (active)	-5.13	-3.55	-2.39
Hras	3	ambion single siRNA	1.53	1.53		-2.39
Hras	4	qiagen single siRNA	-2.46 (active)	-2.39	-2.53	-1.15
Hras	5	qiagen single siRNA	-1.15	-1.15		-1.15
Hras	6	qiagen single siRNA	1.5	0.842	2.16	-1.15
Inhca	1	ambion single siRNA	-1.21	-1.14	-1.28	-1.42
Inhca	2	ambion single siRNA	-1.19	-0.819	-1.56	-1.42
Inhca	3	ambion single siRNA	-1.95	-1.96	-1.94	-1.42
Inhca	4	qiagen single siRNA	2.62 (active)	1.94	3.3	-0.636
Inhca	5	qiagen single siRNA	-0.657	-0.636	-0.679	-0.636
Inhca	6	qiagen single siRNA	-4.37 (active)	-4.37		-0.636
Lrrc10	1	ambion single siRNA	-1.06	-0.931	-1.19	-0.986
Lrrc10	2	ambion single siRNA	-1.57	-1.04	-2.09	-0.986
Lrrc10	3	ambion single siRNA	0.213	0.865	-0.44	-0.986
Lrrc10	4	qiagen single siRNA	0.191	-0.376	0.759	0.669
Lrrc10	5	qiagen single siRNA	-0.472	-3.31	2.36	0.669
Lrrc10	6	qiagen single siRNA	2.99 (active)	0.58	5.41	0.669
Il24	1	ambion single siRNA	1.56	3.12	-0.0132	-2.53
Il24	2	ambion single siRNA	-3.65 (active)	-3.94	-3.37	-2.53
Il24	3	ambion single siRNA	-2.53 (active)	-1.96	-3.1	-2.53
Il24	4	qiagen single siRNA	-1.01	-0.389	-1.64	0.15
Il24	5	qiagen single siRNA	0.69	0.69		0.15
Il24	6	qiagen single siRNA	3.05 (active)	3.05		0.15
